{"source": "EPA's ToxRefDB 2", "key": {"[1]": {"system": "rat", "conditions": "Carcinogenicity; fischer; Oral; Feed; dose end: 105 week; group: systemic; systemic / in life observation / body weight / body weight + systemic / pathology microscopic / kidney / hyperplasia + systemic / pathology …"}, "[2]": {"system": "mouse", "conditions": "Subchronic oral toxicity in rodents, b6c3f1, Feed, dose end: 14 week, group: systemic, systemic / clinical chemistry / bile acids / bile acids + systemic / clinical chemistry / sorbitol dehydrogenase / sorbitol dehydrogenase + …"}, "[3]": {"system": "mouse", "conditions": "Carcinogenicity; b6c3f1; Oral; Feed; dose end: 105 week; group: systemic; systemic / in life observation / body weight / body weight + systemic / pathology microscopic / kidney / mineralization + systemic / …"}}}
{"smiles": "O=C(c1ccccc1)c1ccccc1", "note": "[Benzophenone]", "values": [{"measurement": "NOAEL", "setting": "[1]", "result": 15, "unit": "mg/kg/day"}, {"measurement": "NOAEL", "setting": "[2]", "result": 200, "unit": "mg/kg/day"}, {"measurement": "NOAEL", "setting": "[3]", "result": 35, "unit": "mg/kg/day"}]}
